Reference: PubChem BioAssay AID1259254 (NCATS, 2017)
Aim: 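Genome-wide screen for genes that prevent DNA re-replication in cancer cells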 (primary screen). Cell system: human HCT116 colorectal cancer cells. Reagents: single siRNA against human genes. Timing: 3 days. Read-out: 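Imaged Hoechst DNA stain sorts each cell into a cycle phase by DNA amount; per plate, G2 fraction set to 0% for non-targeting and 100% for GMNN siRNA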. Reading the numbers: G2 robust z-score: higher = more G2 cells, more excess DNA replication. Call rule: 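An siRNA counts as active if its G2 robust z-score lies at least 5 MADs above the screen median; here such calls match roughly 38% of GMNN control or more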.
The whole screen tested about 59,000 reagents; below is an unselected part. In the full data, about 1,550 (2.6%) got an active call. 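G2 share is only a proxy for re-replication; each gene was hit by three separate siRNAs, and active genes were retested.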 The numbers tell different reagents against one gene apart. Further read-outs or replicates are left out here. Not given: the amount of reagent.

With knock-down of RGP1 (RGP1 partner of RAB6A GEF complex) #1, the record shows G2 robust z-score 0.31; inactive. RGP1 (RGP1 partner of RAB6A GEF complex) #2 showed G2 robust z-score 2.91; inactive. RGP1 (RGP1 partner of RAB6A GEF complex) #3 scored G2 robust z-score 3.52; inactive. Knock-down of DCAF12L1 (DDB1 and CUL4 associated factor 12 like 1) #1 resulted in: G2 robust z-score 0.707; inactive. DCAF12L1 (DDB1 and CUL4 associated factor 12 like 1) #2 gave G2 robust z-score -0.183; inactive. Silencing of DCAF12L1 (DDB1 and CUL4 associated factor 12 like 1) #3 came out at: G2 robust z-score 0.132; inactive.

For SPAST (spastin) #1, the values are G2 robust z-score -0.163; inactive. For SPAST (spastin) #2 the deposit lists G2 robust z-score -0.726; inactive. Knock-down of SPAST (spastin) #3 gave: G2 robust z-score 0.412; inactive. C11orf87 (chromosome 11 open reading frame 87) #1 showed G2 robust z-score 0.546; inactive. C11orf87 (chromosome 11 open reading frame 87) #2 showed G2 robust z-score 1.32; inactive. Depletion of C11orf87 (chromosome 11 open reading frame 87) #3 gave: G2 robust z-score -1.51; inactive.

2 successive entries already listed, quoted:
SPAST (spastin) #3: G2 robust z-score = 0.412; outcome = inactive
C11orf87 (chromosome 11 open reading frame 87) #1: G2 robust z-score = 0.546; outcome = inactive
